About 13,000 (3.2%) of roughly 400,000 compounds were called active. This list was built around the results that the source calls inconclusive (neither active nor inactive); the mix of calls is not that of the screen. The call rests on the fitted dose curve; in most records, active means well fitted cell-killing curve with a large enough effect; inconclusive means small, poorly fitted or top-dose-only effect, or effect the other way; inactive means flat fitted curve, though single readings scatter. Where the call is inconclusive, the potency comes from a doubtful curve fit.
Assay: qHTS assay for MDR1-selective chemotherapeutics: Primary screen using the drug-selected MDR subline cells KB-V1; further: nearly all actives have a fitted effect of over 60% in size
Conditions: KB-V1 MDR cells viability, CellTiter-Glo, 72 h; activity change, negative = cytotoxicity: at 46.1 µM (top of the series)
In short: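 Drug-selected KB-V1 cells, grown in DMEM lacking phenol red with 10% FBS, receive compound titrations; after three days at 37 degrees C, surviving cell ATP is quantified by CellTiter-Glo luminescence and responses normalized and curve-fitted.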
With Cc1ccc(-c2ccc(CN3C(C(C)C)C(=O)N(Cc4cn(CCC5OCCO5)nn4)CCS3(=O)=O)cc2)cc1 (stereo unspecified) the Potency was inconclusive: 25.9 µM [cytotoxic, single point]. With N#Cc1ccc(NC(=O)c2cc(S(=O)(=O)N3CCOCC3)ccc2N2CCCC2)cc1 the Potency was “inactive”. With C/C(=N\N=C(N)N)c1ccc(Cl)c(Cl)c1 the Potency was inconclusive: 16.4 µM [cytotoxic, single point]. In the case of CCOc1ccc(CCN2C(=O)C(=O)N([C@@H](CC(C)C)CN3CCC[C@@H]3CN3C(=O)C(=O)NC[C@@H]3Cc3ccccc3)C[C@@H]2CC(C)C)cc1, the Potency is reported as “inactive”. In the case of O=C(NC1CCCCC1)C(c1ccccc1F)N(C(=O)c1csnn1)C1CCCC1 (stereo unspecified), the Potency is reported as inconclusive: 6.51 µM [cytotoxic, partial curve]. For COc1ccc(CCNC(=O)COC(=O)Cc2c[nH]c3ccccc23)cc1OC, the Potency was inconclusive: 29.1 µM [rising, single point]. In the case of Clc1cccc(CSc2nnc(-c3ccccn3)n2Cc2ccco2)c1, the Potency is reported as active: 10.3 µM. In the case of Cc1cccc(N=C2NC(=O)CS2)c1, the Potency is reported as inconclusive: 29.1 µM [cytotoxic, single point]. For O=C(O)Cc1ccc(NC(=O)Nc2cccc(Cl)c2)cc1, the Potency was inconclusive: 29.1 µM [rising, single point]. For CCOCCCn1c(=N)c(C(=O)NC(C)c2ccccc2)cc2c(=O)n3cccc(C)c3nc21 (stereo unspecified), the Potency was inconclusive: 11.6 µM [cytotoxic, partial curve, poor fit]. With COc1ccc(/C=N/Nc2cc(N3CCOCC3)ncn2)c(OC)c1 the Potency was inconclusive: 18.4 µM [rising, single point]. With CC(C)OC(=O)c1ccc(NC(=O)c2cncc(Br)c2)cc1 the Potency was inconclusive: 7.31 µM [cytotoxic, partial curve]. In the case of CC(=O)c1ccc(NC(=O)C(C)N2CCN(C/C=C/c3ccccc3)CC2)cc1 (stereo unspecified), the Potency is reported as inconclusive: 11.6 µM [cytotoxic, partial curve, poor fit]. For COc1ccc(C(=O)NNc2ncnc3c2cnn3-c2ccc(C)cc2C)cc1, the Potency was “inactive”. For COc1ccc(Cn2nnnc2C(c2cc3cc(C)cc(C)c3[nH]c2=O)N2CCOCC2)cc1 (stereo unspecified), the Potency was inconclusive: 16.4 µM [cytotoxic, single point]. For CCOC(=O)C1(Cc2cccc(OC)c2)CCN(Cc2cccc(OC)c2O)CC1, the Potency was active: 5.17 µM. For COc1ccc(-c2nnc(SCc3c(C)noc3C)o2)cc1, the Potency was inconclusive: 9.2 µM [cytotoxic, partial curve, poor fit]. With COc1ccc(C(=O)NC(Nc2ccccc2)C(Cl)(Cl)Cl)cc1 (stereo unspecified) the Potency was active: 8.2 µM. In the case of CCCn1c(=S)[nH]c2cc(C(=O)NCc3ccccc3OC)ccc2c1=O, the Potency is reported as “inactive”. In the case of Cc1ccc(C)c(N2N=C(C(=O)OCc3nnc(-c4ccccc4Br)o3)CCC2=O)c1, the Potency is reported as “inactive”. For Cc1ccc2occ(CC(=O)Nc3ccc(Cl)c(C(F)(F)F)c3)c2c1, the Potency was inconclusive: 20.6 µM [cytotoxic, single point]. For Cc1sc2nc(CSc3nc4ccccc4c(=O)n3CCCN3CCOCC3)[nH]c(=O)c2c1C, the Potency was inconclusive: 32.6 µM [cytotoxic, single point]. For CCOC(=O)c1ccc(NC(=O)c2nc[nH]c2C(=O)N[C@@H](Cc2ccccc2)C(=O)OC(C)(C)C)cc1, the Potency was “inactive”. With Cc1cc(=O)oc2c(C)c(OCC(=O)N3CCN(C(=O)C4COc5ccccc5O4)CC3)ccc12 (stereo unspecified) the Potency was inconclusive: 2.31 µM [cytotoxic, full curve]. For Fc1cccc(-c2nnn3c2nc(NCc2ccc4c(c2)OCO4)c2ccccc23)c1, the Potency was inconclusive: 4.61 µM [rising, partial curve, poor fit]. In the case of Cc1cc(N2CCC(C(=O)Nc3ccccc3Cl)CC2)n2nc(C)c(-c3ccc(Cl)cc3)c2n1, the Potency is reported as inconclusive: 32.6 µM [rising, single point]. With O=C(NCCN1CCN(C(=O)c2ccc([N+](=O)[O-])cc2)CC1)C(=O)NCc1ccccc1 the Potency was inconclusive: 16.4 µM [cytotoxic, partial curve, poor fit]. In the case of N#Cc1cc2c(nc1SCC(N)=O)CCCCC2, the Potency is reported as inconclusive: 18.4 µM [cytotoxic, partial curve]. In the case of COC(=O)c1ccc(-c2nc(-c3ccc(OC)c(OC)c3)no2)cc1, the Potency is reported as inconclusive: 16.4 µM [rising, single point]. In the case of CC(C)CCOc1ccc(/C=N/N2C(=O)CSC2=S)cc1, the Potency is reported as “inactive”. With CC12CCC=CC1=C(C=O)C1C2CCC2(C)C(O)CCC12 (stereo unspecified) the Potency was inconclusive: 32.6 µM [cytotoxic, single point]. With CCc1ccc(C(=O)NC2=NC(c3cc(OC)ccc3OC)CC(=O)N2)cc1 (stereo unspecified) the Potency was “inactive”. With CCn1c(N2CCN(C(=O)C34CC5CC(CC(C5)C3)C4)CC2)nc2ccccc21 the Potency was inconclusive: 29.1 µM [cytotoxic, single point]. With COc1ccc(CNC(=O)/C=C/c2cc([N+](=O)[O-])ccc2OC(F)F)cc1 the Potency was inconclusive: 29.1 µM [cytotoxic, single point]. For NC(=O)c1ccccc1NC(=O)/C=C/c1c(Cl)cccc1Cl, the Potency was active: 4.11 µM. For Cc1cc(C)c(S(=O)(=O)N2CCCCC2CCNC(=O)C(=O)NCc2ccco2)c(C)c1 (stereo unspecified), the Potency was inconclusive: 6.51 µM [cytotoxic, partial curve, poor fit]. For COc1ccc(-c2ccc(SCC(=O)NCc3ccco3)nn2)cc1OC, the Potency was active: 9.2 µM. With O=C(c1ccc2c(c1)N(Cc1ccc(Cl)cc1)C(=O)c1ccccc1S2(=O)=O)N1CCN(Cc2ccccc2)CC1 the Potency was inconclusive: 29.1 µM [cytotoxic, single point]. In the case of Cc1cccc(N(C(=O)CCC(=O)Nc2nccs2)C(C(=O)NC(C)(C)C)c2ccc(O)cc2)c1 (stereo unspecified), the Potency is reported as “inactive”. With COC(=O)C1=C(C)NC(C)=C(C(=O)OCC2CCCO2)C1c1cccc(Cl)c1 (stereo unspecified) the Potency was inconclusive: 23.1 µM [cytotoxic, single point]. In the case of CCNC(=O)CC1C(=O)N(c2ccc(C)cc2)C(=O)N1CCc1sccc1C (stereo unspecified), the Potency is reported as “inactive”. With O=C(c1ccc2n[nH]nc2c1)N1CCN(c2ccc(C(F)(F)F)cn2)CC1 the Potency was “inactive”. With CCN(CC)CCn1c(NC(=O)c2ccc(C)cc2)nc2ccccc21 the Potency was inconclusive: 29.1 µM [cytotoxic, single point]. For COc1ccc(NC(=O)N(C)C[C@@H]2Oc3cc(C#CCN(C)C)ccc3S(=O)(=O)N([C@H](C)CO)C[C@H]2C)cc1, the Potency was inconclusive: 29.1 µM [rising, single point]. For COc1ccccc1NC(=O)COC(=O)c1c(NC(C)=O)sc(C)c1C, the Potency was inconclusive: 10.3 µM [cytotoxic, partial curve, poor fit]. For Fc1cccc2sc(Nc3nc4cc5c(cc4s3)OCO5)nc12, the Potency was “inactive”. In the case of O=C(CSc1ccccc1F)NC(=O)c1ccc(Cl)cc1, the activity change, negative = cytotoxicity is reported as inconclusive: -2.27%. In the case of NNC(=O)C(=O)Nc1ccc(Cl)c(Cl)c1, the Potency is reported as inconclusive: 2.06 µM [cytotoxic, partial curve, poor fit]. In the case of O=S(=O)(c1ccc(Br)cc1)c1nnn2c1nc(NCCc1ccccc1)c1sccc12, the Potency is reported as inconclusive: 29.1 µM [cytotoxic, single point]. With CCN1CCN(C(=O)c2ccc3c(c2)c(C)c(C)n3Cc2ccccc2)CC1 the Potency was “inactive”. In the case of Nc1cc(=O)[nH]c(SCCSc2cc(Cl)ccc2Cl)n1, the Potency is reported as active: 0.411 µM. With O=C(NCC1(c2ccccc2)CCCC1)c1cccc(Br)c1 the Potency was inconclusive: 16.4 µM [cytotoxic, single point]. In the case of OC(c1ccccc1)(c1nc(-c2cccc3cccnc23)cs1)C(F)(F)F (stereo unspecified), the Potency is reported as “inactive”. With COc1ccc(/C=C2\CCC/C(=C\C=N\N(C)C)C2=O)cc1 the Potency was inconclusive: 23.1 µM [cytotoxic, single point]. For O=C(Nc1nnc(C2CC2)s1)C1CCCCN1S(=O)(=O)c1ccccc1 (stereo unspecified), the Potency was inconclusive: 14.6 µM [cytotoxic, partial curve, poor fit]. For Cc1cc(C)cc(C(=O)NCC(=O)OCC(=O)N(C)C2CCS(=O)(=O)C2)c1 (stereo unspecified), the Potency was inconclusive: 16.4 µM [rising, single point]. With CC12CCC3c4ccc(O)c([N+](=O)[O-])c4CCC3C1CCC2=O (stereo unspecified) the Potency was inconclusive: 23.1 µM [cytotoxic, single point]. For COc1ccc(F)cc1C(=O)C1CCCN(C(=O)CCN2CCCCO2)C1 (stereo unspecified), the Potency was inconclusive: 13 µM [cytotoxic, partial curve]. For CCOc1ccc(S(=O)(=O)c2c(C(=O)c3ccc(C)c(C)c3)cnc3ccccc23)cc1, the Potency was “inactive”. With Cc1ccc(CNC(=O)CCc2nnc3n(C)c(=O)c4sccc4n23)cc1 the Potency was “inactive”. For COc1ccc(Br)cc1CN(C)C(=O)c1cnc(C)cn1, the Potency was inconclusive: 23.1 µM [rising, single point]. For CCOC(=O)c1ccc(Nc2nnc(C(C)(C)C)c(=O)[nH]2)cc1, the Potency was inconclusive: 29.1 µM [cytotoxic, single point]. For CN(C)CCNS(=O)(=O)c1ccc(N2CCN(c3ccc(F)cc3)CC2)c([N+](=O)[O-])c1, the Potency was inconclusive: 29.1 µM [cytotoxic, single point]. In the case of Cc1cccc(C)c1OCc1nnc(SCC(=O)Nc2nccs2)n1-c1ccccc1, the Potency is reported as inconclusive: 1.3 µM [cytotoxic, partial curve, poor fit]. For CC[N+]1(CC(=O)c2cccs2)CCCCC1, the activity change, negative = cytotoxicity was inconclusive: 0%. With COc1ccc(S(=O)(=O)N2CCN(CCOc3ccccc3Cl)CC2)cc1OC the Potency was inconclusive: 29.1 µM [rising, partial curve, poor fit].

— PubChem BioAssay AID1347076 (National Center for Advancing Translational Sciences (NCATS), 2019)
On the % scale 0 is the no-effect control and ±100 the full control effect; potency means the concentration at half of the fitted maximal effect.
